Reference: article doi:10.1101/2021.02.01.429105
These are yes or no findings as the source states them, for the method shown.

Protein sequences, listed by entry. Tags and fused reporters are not part of them.
UniProt A0A0E4AYE7, whole entry: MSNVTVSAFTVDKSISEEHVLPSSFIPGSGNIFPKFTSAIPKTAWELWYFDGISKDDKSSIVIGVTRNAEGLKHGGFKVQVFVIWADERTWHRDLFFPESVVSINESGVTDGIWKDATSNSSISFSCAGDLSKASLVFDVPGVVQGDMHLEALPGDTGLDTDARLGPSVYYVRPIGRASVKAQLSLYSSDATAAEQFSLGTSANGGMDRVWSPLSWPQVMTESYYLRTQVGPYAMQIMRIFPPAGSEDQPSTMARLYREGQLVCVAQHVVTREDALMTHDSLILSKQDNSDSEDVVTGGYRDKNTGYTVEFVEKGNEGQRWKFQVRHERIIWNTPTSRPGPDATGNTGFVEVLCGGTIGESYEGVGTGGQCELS

Assays:
[1] = biological target: Fsa2 (Fusarium sp. FN080326); assay: SEC
[2] = biological target: Phm7 (Pyrenochaetopsis sp. RK10-F058); assay: SEC

Molecule | binding [1] | binding [2]
Fsa2 (from UniProt A0A0E4AYE7 1-374) (enzyme) | no binding | 
Phm7 (enzyme, UniProt A0A2Z5XAU0 1-386) MSEPTSSSSLDITSNCIIETPLQPSDFLPKSANLFPKFPERISVDSWELWEFDTFDTNGSVAFGCSLYRDARGVEQGGFHAEVNALWPDGTHWGETLYFAVSEVVENSDGTTGGKWLSKDGGSITFHIASDYTAAALDFNVPGKVSGTMELRNHANVSPTSNLPASDAEAQLCPGVYYTFPMGPVATSVTATFSSVGANGESRELFISSGYGGMVRGWSARPWPTFMNDAYYVVAQVGPYMLQILRTLGSVFVQHKPFAVARLYLDGSLVSAANTVVGDELTAHADDVKGDAVRLTKVQPDEKSQGLSGKFRDGNVGYVLEFAKKDSEHGWTFQISHKRAVWSEPTSAPGPDGTGKSGWIEAISGGAKGENYEGHGFGGQLQIPVP |  | no binding
